According to PubChem BioAssay AID504467 (National Center for Advancing Translational Sciences (NCATS), 2011):
Screen size: about 330,000 compounds; about 7,700 (2.3%) were called active. The inconclusive results got no clear call from the source; some entries with a clear call stand among them for comparison. Calls follow the shape of the dose curve; as a rule, active = well fitted inhibition curve with a large enough effect; inconclusive = small, poorly fitted or top-dose-only effect, or effect the other way; inactive = flat fitted curve, though single readings scatter. A potency beside an inconclusive call is a rough fit, not a confirmed value.

assay: qHTS screen for small molecules that inhibit ELG1-dependent DNA repair in human embryonic kidney (HEK293T) cells expressing luciferase-tagged ELG1; conditions: HEK293T ELG1-luciferase reporter, luminescence, 16 h, DNA damage induced by 5-fluorouridine; activity change, negative = inhibition: at 46.1 µM (top of the series); also: nearly all actives have a fitted effect of over 55% in size
Method in brief: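 Quantitative HTS, concentration-response format. 2,000 cells/well co-treated with 5-fluorouridine and compound, 16 hr in 5% CO2 at 37 °C; ONE-Glo luminescence read after 30 min.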
% is scaled to controls: 0 for no effect and ±100 for the full control effect; potency is read from the fitted curve at half-maximal effect.

Question: Which Potency does the source give for `CCOC(=O)/C(=C\c1cccnc1)C(=O)c1cc(C(C)=O)c(Nc2ccccc2)s1` here?
Answer: The Potency was inconclusive: 29.1 µM [inhibitor, single point].

Question: With `CC1CCCCN1Cc1c(O)ccc2c(=O)c(-c3nc4ccccc4s3)coc12` (centres undefined) as the molecule, how does the Potency read?
Answer: The Potency was inconclusive: 7.3 µM [activator, partial curve].

Question: With `O=S(=O)(c1cccc(F)c1)N1CCN(c2nc(-c3cccnc3)nc3ccccc23)CC1` as the molecule, how does the Potency read?
Answer: Its Potency is active: 10.3 µM.

Question: For `Cn1c(O)c(/C=C2\C=Nc3ccccc32)sc1=Nc1ccc(C(=O)O)cc1`, which “activity change, negative = inhibition” value is on record?
Answer: The value was inactive: -7.34%.

Question: For `N#C/C(=C\c1ccccc1C(F)(F)F)C(=O)Nc1ccccc1`, which “activity change, negative = inhibition” value is on record?
Answer: Its value is inactive: 2.55%.

Question: For `CN1CCc2nc(SCc3ccc(C(C)(C)C)cc3)c(C#N)cc2C1`, which “activity change, negative = inhibition” value is on record?
Answer: The value was inactive: -12.2%.

Question: For `COc1cccc2cc(-c3nc4ccccc4o3)c(=O)oc12`, which Potency is on record?
Answer: Its Potency is inconclusive: 20.6 µM [activator, partial curve].

Question: Which Potency does the source give for `Cc1cc(C(=O)Nc2sc(C)c(C)c2C#N)c(C)o1` here?
Answer: Its Potency is inconclusive: 3.26 µM [activator, partial curve, poor fit].

Question: Which Potency does the source give for `c1cnc2c(OCc3cn4cccnc4n3)cccc2c1` here?
Answer: Its Potency is inconclusive: 8.2 µM [activator, partial curve].

Question: With `Cc1cc(C(=O)COC(=O)c2cnccn2)c(C)n1-c1ccc(Br)cc1` as the molecule, how does the “activity change, negative = inhibition” value read?
Answer: Its value is inactive: 7.42%.

Question: Which “activity change, negative = inhibition” value does the source give for `c1ccc(N=Nc2cn[nH]c2-c2ccco2)cc1` here?
Answer: Its value is inactive: -1.62%.

Question: Which Potency does the source give for `COc1ccccc1N1CC(C)(C)C(=O)N(C(=O)c2ccc(Cl)cc2)C1=S` here?
Answer: Its Potency is inconclusive: 18.3 µM [activator, partial curve, poor fit].

Question: For `CCN(CC)CCN(C(=O)c1ccc2c(c1)CCCC2)c1nc2ccc(F)cc2s1`, which Potency is on record?
Answer: Its Potency is inconclusive: 16.4 µM [inhibitor, single point].

Question: For `CC12CC(NC(=O)N1c1cccc(C(=O)NCc3ccc4c(c3)OCO4)c1)c1cc(Cl)ccc1O2` (centres undefined), which Potency is on record?
Answer: Its Potency is inconclusive: 23.1 µM [inhibitor, single point].

Question: With `C(=N\NC(=Nc1ccccc1)c1ccccn1)/c1ccccn1` as the molecule, how does the Potency read?
Answer: Its Potency is inconclusive: 6.51 µM [inhibitor, partial curve, poor fit].

Question: For `O=C(Nc1cccc(S(=O)(=O)C(F)F)c1)c1ccc(S(=O)(=O)N2CCCC2)cc1`, which Potency is on record?
Answer: The Potency was inconclusive: 23.1 µM [inhibitor, partial curve].

Question: Which Potency does the source give for `O=C(NNC(=O)C1CC=CCC1)c1ccccc1O` (centres undefined) here?
Answer: Its Potency is inconclusive: 10.3 µM [activator, partial curve].

Question: With `Cc1cc(C)cc(NC(=O)COC(=O)c2ccc(CN3CCCC3=O)cc2)c1` as the molecule, how does the Potency read?
Answer: Its Potency is inconclusive: 10 µM [activator, partial curve, poor fit].

Question: Which “activity change, negative = inhibition” value does the source give for `O=C(c1cccc2ccccc12)C1CCCN(C(=O)CCCn2cncn2)C1` (centres undefined) here?
Answer: The value was inactive: 7.08%.
